Measured values taken from the supplement of paper PMC6078165.
The reference is the same well before dosing, and untreated signal decays as well.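 Fibroblast labels denote human fibroblasts, mainly primary ones from uterus (C12385, HUF), lung (H6013), bone (Hs27A), adrenal (HADF) and skin (WS1), plus mammary HMF and breast cancer-associated Hs343T. Cancer cells are basal-like or mesenchymal-like triple-negative breast cancer lines. A hit is a response shift exceeding 3x replicate standard deviation. The tissue of the other fibroblasts is not given here.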

Tested on: Hs578T
Experiment: relative JC-1 red fluorescence (viability) vs pre-drug, coculture with fibroblast (fraction); higher = more viable cancer cells
Experimental: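 JC-1 labelled TNBC cells cocultured 1:1 (1,500 cells each) with CellTrace Violet stained primary or stromal fibroblasts in 384-well plates in FluoroBrite medium, treated with one of 42 anticancer drugs at 0.1, 1, 10 or 100 uM. JC-1 red fluorescence (mitochondrial integrity in cancer cells only) was read by plate reader every 8 h for 72 h. Values are normalised to each well's pre-drug value. The stock of one drug was tenfold lower, so its dose labels may be too high.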

CC(C)C[C@H](NC(=O)[C@H](Cc1ccccc1)NC(=O)c1cnccn1)B(O)O [Bortezomib]
relative JC-1 red fluorescence
Conditions	8 h	16 h	24 h	32 h	40 h	48 h	56 h	64 h	72 h
0.1 µM	0.8484	0.655	0.571	0.568	0.534	0.526	0.543	0.532	0.556
1 µM	0.906	0.652	0.534	0.52	0.49	0.475	0.478	0.457	0.462
10 µM	0.905	0.6	0.487	0.48	0.446	0.429	0.4302	0.4105	0.412
100 µM	0.9061	0.666	0.576	0.566	0.546	0.533	0.533	0.518	0.524

relative JC-1 red fluorescence
Conditions	8 h	16 h	24 h	32 h	40 h	48 h	56 h	64 h	72 h
0.1 µM, coculture fibroblast: C12385	0.8	0.663	0.576	0.464	0.434	0.44	0.443	0.466	0.488
0.1 µM, coculture fibroblast: H6013	0.829	0.656	0.588	0.605	0.626	0.662	0.676	0.702	0.698
0.1 µM, coculture fibroblast: H6019	0.757	0.633	0.652	0.586	0.601	0.614	0.63	0.654	0.669
0.1 µM, coculture fibroblast: H6076	0.882	0.6726	0.604	0.623	0.622	0.655	0.672	0.703	0.737
0.1 µM, coculture fibroblast: H6231	0.8239	0.671	0.624	0.617	0.581	0.591	0.581	0.594	0.619
0.1 µM, coculture fibroblast: HADF	0.844	0.727	0.648	0.632	0.651	0.675	0.677	0.696	0.702
0.1 µM, coculture fibroblast: HCFa	0.808	0.634	0.572	0.547	0.5468	0.578	0.582	0.588	0.579
0.1 µM, coculture fibroblast: HCPF	0.8571	0.659	0.571	0.564	0.523	0.527	0.534	0.534	0.539
0.1 µM, coculture fibroblast: HHSteC	0.8379	0.693	0.63	0.618	0.625	0.618	0.633	0.634	0.629
0.1 µM, coculture fibroblast: HMF	0.8491	0.686	0.6	0.594	0.561	0.558	0.575	0.59	0.614
0.1 µM, coculture fibroblast: HPFa	0.885	0.745	0.701	0.696	0.722	0.735	0.737	0.754	0.745
0.1 µM, coculture fibroblast: HUF	0.8113	0.625	0.587	0.506	0.483	0.489	0.5	0.524	0.54
0.1 µM, coculture fibroblast: Hs27A	0.827	0.6823	0.589	0.565	0.554	0.58	0.572	0.587	0.573
0.1 µM, coculture fibroblast: Hs343T	0.8807	0.6668	0.549	0.549	0.509	0.513	0.519	0.534	0.57
0.1 µM, coculture fibroblast: WS1	0.784	0.555	0.523	0.426	0.414	0.443	0.453	0.487	0.512
1 µM, coculture fibroblast: C12385	0.787	0.624	0.496	0.409	0.382	0.365	0.365	0.377	0.39
1 µM, coculture fibroblast: H6013	0.837	0.645	0.55	0.553	0.543	0.551	0.547	0.551	0.538
1 µM, coculture fibroblast: H6019	0.74	0.552	0.519	0.467	0.473	0.485	0.493	0.513	0.514
1 µM, coculture fibroblast: H6076	0.924	0.684	0.486	0.468	0.45	0.459	0.473	0.485	0.502
1 µM, coculture fibroblast: H6231	0.8624	0.6472	0.481	0.509	0.4569	0.451	0.429	0.422	0.426
1 µM, coculture fibroblast: HADF	0.839	0.666	0.539	0.498	0.478	0.476	0.457	0.45	0.437
1 µM, coculture fibroblast: HCFa	0.799	0.589	0.482	0.465	0.443	0.442	0.428	0.419	0.398
1 µM, coculture fibroblast: HCPF	0.9102	0.7015	0.499	0.499	0.465	0.464	0.468	0.45	0.455
1 µM, coculture fibroblast: HHSteC	0.902	0.728	0.665	0.644	0.643	0.645	0.653	0.659	0.642
1 µM, coculture fibroblast: HMF	0.8724	0.646	0.477	0.473	0.432	0.428	0.411	0.411	0.419
1 µM, coculture fibroblast: HPFa	0.887	0.673	0.643	0.636	0.634	0.63	0.606	0.604	0.575
1 µM, coculture fibroblast: HUF	0.791	0.583	0.4827	0.408	0.379	0.366	0.3533	0.35316	0.3587
1 µM, coculture fibroblast: Hs27A	0.819	0.691	0.613	0.615	0.58	0.576	0.55	0.546	0.516
1 µM, coculture fibroblast: Hs343T	0.942	0.694	0.413	0.387	0.337	0.331	0.323	0.329	0.347
1 µM, coculture fibroblast: WS1	0.781	0.51907	0.487	0.393	0.374	0.3761	0.3695	0.389	0.399
10 µM, coculture fibroblast: C12385	0.7718	0.5357	0.498	0.402	0.365	0.354	0.345	0.346	0.348
10 µM, coculture fibroblast: H6013	0.755	0.573	0.547	0.551	0.553	0.566	0.562	0.568	0.554
10 µM, coculture fibroblast: H6019	0.7326	0.593	0.612	0.546	0.546	0.553	0.552	0.578	0.584
10 µM, coculture fibroblast: H6076	0.9043	0.614	0.516	0.529	0.514	0.538	0.545	0.557	0.57
10 µM, coculture fibroblast: H6231	0.898	0.5642	0.533	0.52017	0.471	0.469	0.445	0.444	0.442
10 µM, coculture fibroblast: HADF	0.799	0.601	0.494	0.46	0.438	0.425	0.405	0.3961	0.3761
10 µM, coculture fibroblast: HCFa	0.7388	0.533	0.479	0.45	0.441	0.443	0.439	0.441	0.422
10 µM, coculture fibroblast: HCPF	0.873	0.645	0.576	0.581	0.536	0.53	0.54	0.512	0.504
10 µM, coculture fibroblast: HHSteC	0.749	0.521	0.46	0.445	0.43	0.422	0.418	0.412	0.395
10 µM, coculture fibroblast: HMF	0.8735	0.658	0.607	0.604	0.569	0.563	0.559	0.561	0.563
10 µM, coculture fibroblast: HPFa	0.844	0.638	0.6148	0.605	0.606	0.599	0.583	0.581	0.554
10 µM, coculture fibroblast: HUF	0.803	0.58	0.577	0.5	0.47	0.458	0.444	0.449	0.441
10 µM, coculture fibroblast: Hs27A	0.859	0.562	0.523	0.513	0.509	0.519	0.508	0.515	0.492
10 µM, coculture fibroblast: Hs343T	0.902	0.625	0.5421	0.5383	0.4902	0.486	0.4757	0.4712	0.4771
10 µM, coculture fibroblast: WS1	0.7553	0.543	0.512	0.416	0.382	0.38	0.36	0.371	0.37
100 µM, coculture fibroblast: C12385	0.7903	0.587	0.507	0.425	0.383	0.365	0.352	0.349	0.345
100 µM, coculture fibroblast: H6013	0.836	0.631	0.511	0.502	0.497	0.496	0.491	0.5	0.485
100 µM, coculture fibroblast: H6019	0.781	0.558	0.55	0.478	0.466	0.469	0.47	0.483	0.483
100 µM, coculture fibroblast: H6076	0.9098	0.5581	0.5	0.502	0.487	0.5	0.499	0.496	0.506
100 µM, coculture fibroblast: H6231	0.877	0.605	0.486	0.521	0.467	0.454	0.431	0.415	0.409
100 µM, coculture fibroblast: HADF	0.88	0.73	0.61	0.581	0.553	0.547	0.514	0.503	0.471
100 µM, coculture fibroblast: HCFa	0.827	0.623	0.549	0.541	0.533	0.537	0.522	0.525	0.498
100 µM, coculture fibroblast: HCPF	0.9003	0.658	0.507	0.4985	0.4519	0.445	0.4372	0.4116	0.4065
100 µM, coculture fibroblast: HHSteC	0.8874	0.623	0.56	0.529	0.497	0.476	0.456	0.444	0.423
100 µM, coculture fibroblast: HMF	0.9215	0.724	0.50388	0.4858	0.442	0.428	0.411	0.409	0.401
100 µM, coculture fibroblast: HPFa	0.877	0.629	0.551	0.529	0.516	0.503	0.478	0.467	0.444
100 µM, coculture fibroblast: HUF	0.866	0.643	0.642	0.563	0.531	0.512	0.492	0.493	0.485
100 µM, coculture fibroblast: Hs27A	0.856	0.716	0.654	0.618	0.568	0.557	0.524	0.507	0.467
100 µM, coculture fibroblast: Hs343T	0.938	0.682	0.442	0.449	0.411	0.4	0.386	0.378	0.383
100 µM, coculture fibroblast: WS1	0.785	0.53	0.487	0.397	0.36	0.349	0.332	0.333	0.33
